Assay results from patent US20180037641A1.
These are yes or no findings as the source states them, for the method shown. Some results given as binding are weak or reduced against the parent protein; the word gives no strength.

Sequences of proteins named here, by UniProt entry; tags and fusion partners are left off. A change or cut given only in a name is not applied to a line headed by its entry.
UniProt P10636: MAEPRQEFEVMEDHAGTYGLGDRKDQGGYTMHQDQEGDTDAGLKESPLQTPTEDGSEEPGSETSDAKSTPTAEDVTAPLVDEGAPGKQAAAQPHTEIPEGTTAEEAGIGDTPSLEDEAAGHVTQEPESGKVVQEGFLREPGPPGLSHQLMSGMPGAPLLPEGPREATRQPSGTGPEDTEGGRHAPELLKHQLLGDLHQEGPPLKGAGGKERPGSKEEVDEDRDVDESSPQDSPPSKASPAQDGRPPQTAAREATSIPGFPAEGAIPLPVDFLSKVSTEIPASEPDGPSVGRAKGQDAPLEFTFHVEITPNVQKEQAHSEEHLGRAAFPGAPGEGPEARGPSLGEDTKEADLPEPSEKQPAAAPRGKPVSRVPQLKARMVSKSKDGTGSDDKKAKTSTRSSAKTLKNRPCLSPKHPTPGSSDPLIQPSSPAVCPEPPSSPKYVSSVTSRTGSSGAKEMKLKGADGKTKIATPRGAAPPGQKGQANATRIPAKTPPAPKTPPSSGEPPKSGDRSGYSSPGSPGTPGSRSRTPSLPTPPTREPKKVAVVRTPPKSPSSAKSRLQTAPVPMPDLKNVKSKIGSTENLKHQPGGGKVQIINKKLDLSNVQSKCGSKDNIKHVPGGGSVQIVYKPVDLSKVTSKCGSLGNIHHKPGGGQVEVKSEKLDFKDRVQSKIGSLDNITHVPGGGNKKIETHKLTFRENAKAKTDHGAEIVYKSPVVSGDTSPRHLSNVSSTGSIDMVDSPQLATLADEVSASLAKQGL

Experiments:
[1] = molecular target: tau in neurofibrillary tangles (human) (UniProt P10636); test: immunostaining of human AD frontal cortex with biotinylated HJ8.5
[2] = molecular target: human tau fibrils (human) (UniProt P10636); test: SPR (Biacore), human tau fibrils immobilised, antibody injected
[3] = molecular target: tau in neurofibrillary tangles (human) (UniProt P10636); test: staining of human AD brain NFT's
[4] = molecular target: tau in neurofibrillary tangles (human) (UniProt P10636); test: immunostaining of human AD brain sections
[5] = molecular target: tau in neurofibrillary tangles (human) (UniProt P10636); test: staining, not described
[6] = molecular target: human tau fibrils (human) (UniProt P10636); test: SPR, human tau fibrils immobilised on CM-5 chip (FIG. 31); rates could not be calculated

Measured: binding

B1: HJ8.5 (antibody, V domains shown)
VH: EVKVEESGGGLVQPGGSMKLSCVVSGFTFSNYWVNWVRQSPEKGLEWVAQIRLKSDNYATHYEESVKGRFTISRDDSKSSVYLQMNNLRAEDSGIYYCTNWEDYWGQGTTLTVSS
VL: DIVLTQSPASLAVSLGQRATISCRASQSVSTSRYSYIHWYQQKPGQPPKLLIKYASNLESGVPARFSGSGSGTDFTLNIHPLEEEDAATYYCHHSWEIPLTFGAGTKLELK
binds: all assays above
